Test results as given in article PMC5766157.
Results are given in words; binding and its absence hold for the method and conditions named. Binding seen in cells or lysates may run through a third protein. A yes stands for co-enrichment or nearness to the bait. Other partners may have been found. Values belong to the binder of their own block, whether it stands above or below them.

By UniProt entry, the sequences of proteins in these tests, tags left out.
UniProt P13864: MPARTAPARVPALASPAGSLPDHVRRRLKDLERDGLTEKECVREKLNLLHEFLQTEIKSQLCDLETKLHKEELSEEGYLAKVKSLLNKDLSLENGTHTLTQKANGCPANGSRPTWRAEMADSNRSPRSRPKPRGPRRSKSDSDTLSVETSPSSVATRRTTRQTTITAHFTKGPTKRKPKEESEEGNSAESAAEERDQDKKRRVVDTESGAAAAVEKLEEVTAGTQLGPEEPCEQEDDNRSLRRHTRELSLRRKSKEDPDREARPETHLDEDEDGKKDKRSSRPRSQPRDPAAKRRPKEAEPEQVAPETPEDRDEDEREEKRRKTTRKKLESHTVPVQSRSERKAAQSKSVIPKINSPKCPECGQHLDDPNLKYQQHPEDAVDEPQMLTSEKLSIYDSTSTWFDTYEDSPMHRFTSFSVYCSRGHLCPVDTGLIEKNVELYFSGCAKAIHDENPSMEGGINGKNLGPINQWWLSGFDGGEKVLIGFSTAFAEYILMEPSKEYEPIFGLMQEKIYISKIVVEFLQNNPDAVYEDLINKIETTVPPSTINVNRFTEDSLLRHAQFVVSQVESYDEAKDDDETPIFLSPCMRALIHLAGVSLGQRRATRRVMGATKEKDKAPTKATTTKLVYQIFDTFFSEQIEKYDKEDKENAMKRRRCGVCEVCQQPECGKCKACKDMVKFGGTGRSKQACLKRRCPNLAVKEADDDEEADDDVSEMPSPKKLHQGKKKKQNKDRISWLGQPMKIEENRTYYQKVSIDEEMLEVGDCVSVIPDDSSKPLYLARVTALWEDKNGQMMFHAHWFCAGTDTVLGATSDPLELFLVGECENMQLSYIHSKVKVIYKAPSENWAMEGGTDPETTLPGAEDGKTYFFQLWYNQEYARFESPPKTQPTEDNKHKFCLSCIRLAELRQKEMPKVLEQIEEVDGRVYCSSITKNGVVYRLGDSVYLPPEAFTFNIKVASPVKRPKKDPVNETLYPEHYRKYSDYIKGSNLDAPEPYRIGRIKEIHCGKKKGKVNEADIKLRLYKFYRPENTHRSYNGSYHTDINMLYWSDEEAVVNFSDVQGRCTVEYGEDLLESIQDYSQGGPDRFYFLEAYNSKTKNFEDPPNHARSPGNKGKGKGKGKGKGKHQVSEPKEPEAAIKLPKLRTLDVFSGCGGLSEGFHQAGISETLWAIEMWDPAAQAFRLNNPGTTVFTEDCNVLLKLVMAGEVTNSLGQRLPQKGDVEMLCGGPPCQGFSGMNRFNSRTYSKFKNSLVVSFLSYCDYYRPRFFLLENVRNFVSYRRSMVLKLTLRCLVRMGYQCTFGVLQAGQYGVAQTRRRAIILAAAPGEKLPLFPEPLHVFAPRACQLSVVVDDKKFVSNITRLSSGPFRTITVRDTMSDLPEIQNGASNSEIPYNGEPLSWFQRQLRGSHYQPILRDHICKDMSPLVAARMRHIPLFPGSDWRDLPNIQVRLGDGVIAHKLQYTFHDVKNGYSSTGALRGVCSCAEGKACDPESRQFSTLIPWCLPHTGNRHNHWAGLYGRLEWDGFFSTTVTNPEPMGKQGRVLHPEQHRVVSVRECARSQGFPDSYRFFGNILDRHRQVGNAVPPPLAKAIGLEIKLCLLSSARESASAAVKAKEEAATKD

Biological target: FLAG-c-myc epitope-tagged DNMT1 (DNA methyltransferase 1) from Dnmt1^Tag/+ ES cells (mouse (endogenous in ES cells)) (UniProt P13864)
Experiment: affinity purification with mass spectrometry; anti-FLAG M2 magnetic beads on the soluble nuclear fraction of Dnmt1^Tag/+ ES cells (300 mM NaCl, lysed with Universal Nuclease, 4°C), eluted with FLAG peptide; nano-LC-MS/MS; parental Dnmt1^+/+ cells as control

binding: binds
B1: DGCR8 (double stranded RNA-binding protein, Microprocessor component) (protein, UniProt Q9EQM6 1-773)
chain: METYESPSPLPREPAGEAMMENRACPFQVLPHEQSPPPPLQTSSDAEVMDVGSGGDGQSEPPADDPFNFYGASLLSKGSFSKGRLLIDPNCSGHSPRTARHAPAVRKFSPDLKLLKDVKISVSFTESCRSKDRKVLYTGVERSTRPECGQLLSPVSGDVHACPFGGSVGNGVGLGGESADKKDEENELDQEKRVEYAVLDELEDFTDNLELDEEGTGGFTAKAIVQRDRVDEEALNFSYEDDFDNDVDALLEEGLCAPKKRRMEEKYGGDSDHPSDGETSVQPMMTKIKTVLKSRGRPPTEPLPDGWIMTFHNSGVPVYLHRESRVVTWSRPYFLGTGSIRKHDPPLSSIPCLHYKKMKDNEEREQNCDLAPSGEVSPVKPLGRSAELDFPLEEPDSMGGDSGSMDEKDPLGAEAAAGALGQVKAKVEVCKDESVDLEEFRNYLEKRFDFEQVTVKKFRTWAERRQFNREMKRKQAESERPILPANQKLITLSVQDAPTKKEFVINPNGKSEVCILHEYMQRVLKVRPVYNFFECENPSEPFGASVTIDGVTYGSGTASSKKLAKNKAARATLEILIPDFVKQTSEEKPKDSEELEYFNHISIEDSRVYELTSKAGLLSPYQILHECLKRNHGMGDTSIKFEVVPGKNQKSEYVMACGKHTVRGWCKNKRVGKQLASQKILQLLHPHVKNWGSLLRMYGRESSKMVKQETSDKSVIELQQYAKKNRPNLHILSKLQEEMKRLAAEREETRKKPKMSIVASAQPGGEPLCTVDV

binding: binds
B2: DROSHA (Class 2 RNase III enzyme, Microprocessor component) (enzyme, UniProt Q5HZJ0 1-1373)
chain: MQGNTCHRMSYHPGRGCPRGRGGHGARPSAPAFRPQNLRLLHPQQPPAQYQYEPPSAPSSSYSNSQAPSFMPPRPDFVPYPPPAAPSAQGPLPPCPVRPPYPNHQMRHPFPVPPCFPPMPPPMPCPNNPPASGAPPGQGTFPFMVPPPSMPHPPPPPVMPQQVNYQYPPGYSHSFPPPGFNSYQNNSSSFPPSANSSSTPHFRHLPPYSLPKAQNERRSPERLKHYDDHRHRDHSHGRGERHRSLERRERGRSPERRRPESRYRSDYDRGRTPPPRHRSYERSRERDRERHRHREARRSPSLERSYKKEYKRSGRSYALPVAPEPAGCTPELPGEMIKTTESWAPPPENVNHRSPSREKKRARWEEEKDRWSDSQGSGKEKNYTSIKEKEAEEVPPEKTEEEEEELLKPVWIRCTHSESYYSSDPMDQVGDSTVVGTSRLRDLYDKFEEELGNRQEKAKAARPPWEPPKTKLDEDLESSSESECETDDDSTCSSSSDSEVFDVIAEIKRKKAHPDRLHDELWYNDPGQMNDGPLCKCSAKARRTGIRHSIYPGEEAIKPCRPMTNNAGRLFHYRITVSPPTNFLTDRPTVIEYDDHEYIFEGFSMFAHAPLTNIPLCKVIRFNIDYTIHFIEEMMPENFCVKGLELFSLFLFRDILELYDWNLKGPLFEDSPPCCPRFHFMPRFVRFLPDGGKEVLSMHQILLYLLRCSKALVPEEEIANMLQWEELEWQKYAEECKGMIVTNPGTKPSSVRIDQLDREQFNPEVITFPIIVHFGIRPAQLSYAGDPQYQKLWKSYVKLRHLLANSPKVKQTDKQKLAQREEALQKIRQKNTMRREVTVELSSQGFWKTGIRSDVCQHAMMLPVLTHHIRYHQCLMHLDKLIGYTFQDRCLLQLAMTHPSHHLNFGMNPDHARNSLSNCGIRQPKYGDRKVHHMHMRKKGINTLINIMSRLGQDDPTPSRINHNERLEFLGDAVVEFLTSVHLYYLFPSLEEGGLATYRTAIVQNQHLAMLAKKLELDRFMLYAHGPDLCRESDLRHAMANCFEALIGAVYLEGSLEEAKQLFGRLLFNDPDLREVWLNYPLHPLQLQEPNTDRQLIETSPVLQKLTEFEEAIGVIFTHVRLLARAFTLRTVGFNHLTLGHNQRMEFLGDSIMQLVATEYLFIHFPDHHEGHLTLLRSSLVNNRTQAKVAEELGMQEYAITNDKTKRPVALRTKTLADLLESFIAALYIDKDLEYVHTFMNVCFFPRLKEFILNQDWNDPKSQLQQCCLTLRTEGKEPDIPLYKTLQTVGPSHARTYTVAVYFKGERIGCGKGPSIQQAEMGAAMDALEKYNFPQMAHQKRFIERKYRQELKEMRWEREHQEREPEEAEDIKK
